This is one part of the list. Residues, ends and D or L forms follow the SMILES beside them. *: point of attachment. Cbz = O=C(OCc1ccccc1)*
Legend:
Assay in all cases: log2 fold change, soluble protein after heating vs DMSO (PISA); higher = thermal stabilisation; K562 cells, 10 uM, 30 min; active = over 0.2 and 3.5 SD of the protein, either way, in both replicates (recomputed)
erlotinib = compound: C#Cc1cccc(Nc2ncnc3cc(OCCOC)c(OCCOC)cc23)c1 [erlotinib]
In short: (§1)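 K562 cells (2×10^6 cells/mL) were treated with 10 μM compound for 30 min, and aliquots were heated for 3 min over 48°C-58°C. Pooled aliquots were extracted in PBS with 0.5% NP-40 at 4°C, and the supernatant after 21,000xg for 90 min was measured by TMTpro 16plex LC-MS/MS with channel sums equalised. Reported thermal stability, relative to control samples and from duplicates, is a log2 fold change.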

Sequences of proteins named here, by UniProt entry; tags and fusion partners are left off. A change or cut given only in a name is not applied to a line headed by its entry.
UniProt P62191: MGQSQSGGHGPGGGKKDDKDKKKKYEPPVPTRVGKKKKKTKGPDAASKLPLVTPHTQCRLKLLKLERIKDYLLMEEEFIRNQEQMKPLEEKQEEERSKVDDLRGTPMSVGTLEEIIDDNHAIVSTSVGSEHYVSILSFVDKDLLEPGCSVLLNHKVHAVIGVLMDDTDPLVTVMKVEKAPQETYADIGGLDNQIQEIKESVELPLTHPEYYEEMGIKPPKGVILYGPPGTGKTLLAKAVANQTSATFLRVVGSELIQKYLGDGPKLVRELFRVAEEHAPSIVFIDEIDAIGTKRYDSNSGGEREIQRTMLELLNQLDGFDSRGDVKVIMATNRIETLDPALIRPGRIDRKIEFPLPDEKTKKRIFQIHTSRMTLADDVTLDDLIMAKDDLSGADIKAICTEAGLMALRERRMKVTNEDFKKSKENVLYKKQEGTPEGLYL
UniProt Q14289, whole entry, looked up: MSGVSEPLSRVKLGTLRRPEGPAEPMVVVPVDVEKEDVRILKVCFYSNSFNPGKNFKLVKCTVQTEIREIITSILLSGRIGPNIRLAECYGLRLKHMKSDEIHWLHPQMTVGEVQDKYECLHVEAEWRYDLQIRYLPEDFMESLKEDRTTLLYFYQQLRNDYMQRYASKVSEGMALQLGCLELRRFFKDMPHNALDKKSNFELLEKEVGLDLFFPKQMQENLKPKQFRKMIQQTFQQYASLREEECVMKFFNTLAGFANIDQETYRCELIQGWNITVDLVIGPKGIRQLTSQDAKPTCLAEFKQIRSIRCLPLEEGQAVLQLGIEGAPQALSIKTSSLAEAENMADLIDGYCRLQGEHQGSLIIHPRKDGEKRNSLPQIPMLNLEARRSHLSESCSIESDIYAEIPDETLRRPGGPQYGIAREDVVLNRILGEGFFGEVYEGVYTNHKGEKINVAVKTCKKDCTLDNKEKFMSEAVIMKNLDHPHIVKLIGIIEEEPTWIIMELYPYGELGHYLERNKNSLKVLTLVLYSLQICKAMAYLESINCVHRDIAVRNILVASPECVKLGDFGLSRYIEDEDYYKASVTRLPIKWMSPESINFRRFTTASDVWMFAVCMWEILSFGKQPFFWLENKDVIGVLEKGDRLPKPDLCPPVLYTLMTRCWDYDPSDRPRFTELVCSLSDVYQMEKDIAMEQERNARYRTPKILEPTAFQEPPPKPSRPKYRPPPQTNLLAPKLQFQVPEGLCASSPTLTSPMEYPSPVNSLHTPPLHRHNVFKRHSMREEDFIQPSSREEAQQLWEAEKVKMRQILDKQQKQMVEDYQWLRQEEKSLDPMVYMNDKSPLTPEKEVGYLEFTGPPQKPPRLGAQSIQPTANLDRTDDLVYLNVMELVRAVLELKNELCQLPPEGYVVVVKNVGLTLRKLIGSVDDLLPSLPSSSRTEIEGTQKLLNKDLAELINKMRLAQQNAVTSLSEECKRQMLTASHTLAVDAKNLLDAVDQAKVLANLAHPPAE
UniProt Q15185: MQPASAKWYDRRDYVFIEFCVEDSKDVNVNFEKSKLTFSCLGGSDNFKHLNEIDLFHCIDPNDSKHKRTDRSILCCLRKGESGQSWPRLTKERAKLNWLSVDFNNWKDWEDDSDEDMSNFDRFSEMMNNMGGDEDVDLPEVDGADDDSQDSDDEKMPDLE
UniProt P28070, whole entry, looked up: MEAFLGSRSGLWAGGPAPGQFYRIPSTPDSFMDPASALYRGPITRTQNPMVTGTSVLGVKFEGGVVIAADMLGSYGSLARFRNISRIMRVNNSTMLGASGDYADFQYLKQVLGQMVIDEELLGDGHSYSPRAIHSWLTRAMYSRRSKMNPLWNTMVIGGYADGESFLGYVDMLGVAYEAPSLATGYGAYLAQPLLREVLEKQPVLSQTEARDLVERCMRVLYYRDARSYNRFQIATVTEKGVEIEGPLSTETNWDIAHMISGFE
UniProt Q93096: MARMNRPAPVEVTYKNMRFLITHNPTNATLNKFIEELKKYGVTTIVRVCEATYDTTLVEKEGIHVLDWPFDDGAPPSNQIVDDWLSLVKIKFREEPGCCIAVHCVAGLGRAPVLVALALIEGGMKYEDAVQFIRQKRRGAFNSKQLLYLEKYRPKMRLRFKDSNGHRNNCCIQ
UniProt O00231, whole entry, looked up: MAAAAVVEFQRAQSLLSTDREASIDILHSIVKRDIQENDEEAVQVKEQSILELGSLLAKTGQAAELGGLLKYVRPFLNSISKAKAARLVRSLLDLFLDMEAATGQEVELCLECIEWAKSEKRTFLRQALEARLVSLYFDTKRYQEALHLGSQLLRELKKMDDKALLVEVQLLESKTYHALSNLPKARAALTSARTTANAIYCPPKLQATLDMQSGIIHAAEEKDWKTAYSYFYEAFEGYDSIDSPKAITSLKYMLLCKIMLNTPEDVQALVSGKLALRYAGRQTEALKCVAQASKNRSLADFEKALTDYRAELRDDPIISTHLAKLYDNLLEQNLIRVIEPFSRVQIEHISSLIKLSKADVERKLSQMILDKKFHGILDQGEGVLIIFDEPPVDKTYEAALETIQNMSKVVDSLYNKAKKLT
UniProt Q16401: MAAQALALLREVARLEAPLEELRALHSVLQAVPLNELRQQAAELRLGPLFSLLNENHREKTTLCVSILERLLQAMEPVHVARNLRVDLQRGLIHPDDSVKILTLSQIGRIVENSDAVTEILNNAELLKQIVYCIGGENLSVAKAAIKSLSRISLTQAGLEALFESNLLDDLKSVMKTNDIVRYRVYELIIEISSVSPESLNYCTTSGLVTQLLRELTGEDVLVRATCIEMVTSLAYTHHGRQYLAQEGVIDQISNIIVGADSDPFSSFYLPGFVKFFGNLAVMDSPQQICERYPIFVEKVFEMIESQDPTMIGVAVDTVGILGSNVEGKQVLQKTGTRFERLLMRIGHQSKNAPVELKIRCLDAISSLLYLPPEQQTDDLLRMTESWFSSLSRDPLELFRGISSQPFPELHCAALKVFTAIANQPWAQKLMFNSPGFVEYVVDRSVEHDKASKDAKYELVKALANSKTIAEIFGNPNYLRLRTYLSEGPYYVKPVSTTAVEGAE
UniProt Q96PU8: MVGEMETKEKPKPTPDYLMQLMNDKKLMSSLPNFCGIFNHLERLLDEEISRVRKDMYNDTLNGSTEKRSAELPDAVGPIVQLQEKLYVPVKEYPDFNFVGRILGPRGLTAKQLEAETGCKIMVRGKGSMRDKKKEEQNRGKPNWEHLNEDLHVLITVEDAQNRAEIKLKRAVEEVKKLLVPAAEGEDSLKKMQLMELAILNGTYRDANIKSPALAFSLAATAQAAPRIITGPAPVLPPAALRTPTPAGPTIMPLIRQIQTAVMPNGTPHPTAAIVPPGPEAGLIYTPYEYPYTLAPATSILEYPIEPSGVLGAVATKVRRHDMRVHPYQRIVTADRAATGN
UniProt P28065: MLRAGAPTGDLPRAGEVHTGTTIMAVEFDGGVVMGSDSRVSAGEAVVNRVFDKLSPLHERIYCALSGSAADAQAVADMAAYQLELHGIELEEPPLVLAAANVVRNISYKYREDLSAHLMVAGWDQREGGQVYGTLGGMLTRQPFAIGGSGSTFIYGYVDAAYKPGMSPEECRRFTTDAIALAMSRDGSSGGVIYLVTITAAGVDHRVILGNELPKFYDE
UniProt P06454: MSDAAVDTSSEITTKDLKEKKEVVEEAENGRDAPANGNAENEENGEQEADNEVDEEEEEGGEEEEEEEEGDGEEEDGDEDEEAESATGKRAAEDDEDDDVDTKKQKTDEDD
UniProt Q13332: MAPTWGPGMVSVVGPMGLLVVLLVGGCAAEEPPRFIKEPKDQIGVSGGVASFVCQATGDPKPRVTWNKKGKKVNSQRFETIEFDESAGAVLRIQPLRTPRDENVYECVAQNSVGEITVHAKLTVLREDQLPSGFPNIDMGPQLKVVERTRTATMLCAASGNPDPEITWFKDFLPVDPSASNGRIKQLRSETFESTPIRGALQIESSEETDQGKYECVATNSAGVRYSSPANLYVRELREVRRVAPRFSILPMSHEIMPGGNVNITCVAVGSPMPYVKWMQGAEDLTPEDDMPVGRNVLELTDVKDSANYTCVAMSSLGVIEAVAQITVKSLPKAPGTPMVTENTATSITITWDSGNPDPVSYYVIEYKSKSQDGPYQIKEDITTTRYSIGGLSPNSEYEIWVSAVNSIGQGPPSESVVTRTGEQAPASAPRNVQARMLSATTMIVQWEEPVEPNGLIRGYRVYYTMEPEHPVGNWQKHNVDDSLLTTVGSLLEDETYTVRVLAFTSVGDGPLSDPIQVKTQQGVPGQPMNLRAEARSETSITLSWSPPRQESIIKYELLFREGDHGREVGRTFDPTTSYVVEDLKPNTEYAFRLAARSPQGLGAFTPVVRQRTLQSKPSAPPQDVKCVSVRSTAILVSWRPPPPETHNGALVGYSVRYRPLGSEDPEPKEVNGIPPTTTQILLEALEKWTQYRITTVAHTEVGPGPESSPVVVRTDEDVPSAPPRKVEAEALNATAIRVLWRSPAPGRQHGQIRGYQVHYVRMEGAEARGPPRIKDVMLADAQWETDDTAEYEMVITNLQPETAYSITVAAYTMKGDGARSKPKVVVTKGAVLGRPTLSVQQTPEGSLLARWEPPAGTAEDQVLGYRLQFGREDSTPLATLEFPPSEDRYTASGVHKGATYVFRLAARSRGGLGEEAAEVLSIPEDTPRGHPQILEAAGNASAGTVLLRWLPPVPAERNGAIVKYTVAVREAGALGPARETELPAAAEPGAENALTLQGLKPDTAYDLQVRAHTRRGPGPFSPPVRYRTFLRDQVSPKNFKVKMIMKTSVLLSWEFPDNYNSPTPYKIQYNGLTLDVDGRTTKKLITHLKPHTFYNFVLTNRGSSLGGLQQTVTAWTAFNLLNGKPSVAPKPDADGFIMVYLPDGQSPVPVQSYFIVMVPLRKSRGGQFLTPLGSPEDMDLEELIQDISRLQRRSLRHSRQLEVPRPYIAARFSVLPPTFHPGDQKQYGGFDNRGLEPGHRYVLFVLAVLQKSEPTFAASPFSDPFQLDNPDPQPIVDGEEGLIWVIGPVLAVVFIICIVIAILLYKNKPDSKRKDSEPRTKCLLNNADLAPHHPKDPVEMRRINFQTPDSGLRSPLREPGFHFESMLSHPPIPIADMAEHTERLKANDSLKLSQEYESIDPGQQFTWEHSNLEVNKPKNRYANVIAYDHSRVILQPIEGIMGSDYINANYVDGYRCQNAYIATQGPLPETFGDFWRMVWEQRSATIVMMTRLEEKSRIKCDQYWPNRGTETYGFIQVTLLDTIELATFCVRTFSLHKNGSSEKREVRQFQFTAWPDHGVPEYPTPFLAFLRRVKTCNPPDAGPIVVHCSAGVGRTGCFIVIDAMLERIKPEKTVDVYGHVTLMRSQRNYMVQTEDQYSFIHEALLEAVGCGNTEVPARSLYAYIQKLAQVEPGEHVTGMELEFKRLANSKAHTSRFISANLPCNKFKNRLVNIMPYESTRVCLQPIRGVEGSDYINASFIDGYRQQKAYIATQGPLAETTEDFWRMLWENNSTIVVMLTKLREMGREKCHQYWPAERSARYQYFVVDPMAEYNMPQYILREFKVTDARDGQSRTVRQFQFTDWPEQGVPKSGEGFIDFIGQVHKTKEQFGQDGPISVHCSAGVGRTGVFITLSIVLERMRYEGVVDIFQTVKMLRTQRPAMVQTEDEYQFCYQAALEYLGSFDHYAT
UniProt P11216: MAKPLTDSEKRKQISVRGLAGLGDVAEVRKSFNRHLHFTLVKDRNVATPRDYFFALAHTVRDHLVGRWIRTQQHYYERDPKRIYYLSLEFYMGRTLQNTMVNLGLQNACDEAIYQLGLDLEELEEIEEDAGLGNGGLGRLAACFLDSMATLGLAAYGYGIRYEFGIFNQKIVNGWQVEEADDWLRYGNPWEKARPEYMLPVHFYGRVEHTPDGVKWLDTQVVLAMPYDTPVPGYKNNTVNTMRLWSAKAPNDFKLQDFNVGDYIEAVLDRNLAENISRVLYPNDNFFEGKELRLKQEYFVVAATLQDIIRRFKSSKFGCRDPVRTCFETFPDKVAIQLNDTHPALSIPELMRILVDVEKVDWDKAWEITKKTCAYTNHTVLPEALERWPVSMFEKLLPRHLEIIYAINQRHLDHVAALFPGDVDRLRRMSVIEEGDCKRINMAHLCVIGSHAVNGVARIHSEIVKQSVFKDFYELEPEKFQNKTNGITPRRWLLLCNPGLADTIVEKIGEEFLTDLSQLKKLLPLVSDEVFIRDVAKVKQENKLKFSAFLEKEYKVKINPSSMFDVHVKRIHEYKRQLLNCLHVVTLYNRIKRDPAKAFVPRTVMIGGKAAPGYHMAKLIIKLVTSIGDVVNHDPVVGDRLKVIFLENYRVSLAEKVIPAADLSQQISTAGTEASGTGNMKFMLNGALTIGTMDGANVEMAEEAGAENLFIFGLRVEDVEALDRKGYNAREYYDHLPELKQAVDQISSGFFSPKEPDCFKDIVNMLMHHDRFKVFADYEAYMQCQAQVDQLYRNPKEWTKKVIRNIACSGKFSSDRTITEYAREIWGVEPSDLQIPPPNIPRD

[1] = compound: C/C(=N\NC(=O)C1=CC(=CC=C1)S(=O)(=O)N2CCOCC2)/C3=C(C=CC(=C3)Cl)O
In short: as §1

[2] = compound: C1=CC(=C(C=C1Cl)C2=NC3=NC=CN=C3C(=N2)NC4=CC=NC=C4)F
In short: as §1

[3] = compound: C1=CC(=CC=C1C2=NC3=C(N2)C=C(C=C3)C(=O)N)OC4=CC=C(C=C4)Cl
In short: as §1

[4] = compound: C1=CC2=C(C=CC(=C2)/C=C\3/C(=O)NC(=NCC4=CC=CS4)S3)N=C1
In short: as §1

[5] = compound: C1=CC2=NC=CN=C2C=C1/C=C/3\C(=O)NC(=O)S3
In short: as §1

[6] = compound: C1=CC=C(C=C1)C2=NC(=C(N2)C3=CC=NC=C3)C4=CC(=C(C=C4)Cl)O
In short: as §1

[7] = compound: C1=CC=C2C(=C1)C3=NNC4=CC=CC(=C43)C2=O
In short: as §1

[8] = compound: C1CCN(C1)C(=O)NC2=CC=CC(=C2)NC3=NC=C(C(=N3)NCCC4=CN=CN4)Br
In short: as §1

[9] = compound: C1CN(CCC1(CC2=CC=C(C=C2)Cl)N)C3=NC=NC4=C3C=CN4
In short: as §1

IRAK-1-4 Inhibitor I = compound: C1COCCN1CCN2C3=CC=CC=C3N=C2NC(=O)C4=CC(=CC=C4)[N+](=O)[O-] [IRAK-1-4 Inhibitor I]
In short: as §1

ibrutinib = compound: C=CC(=O)N1CCC[C@@H](n2nc(-c3ccc(Oc4ccccc4)cc3)c3c(N)ncnc32)C1 [ibrutinib]
In short: as §1

[10] = compound: CC(=O)c1cnc2ccc(-c3cc(Cl)c(O)c(Cl)c3)nc2c1N[C@H]1CC[C@H](CN(C)C)CC1
In short: as §1

ralimetinib = compound: CC(C)(C)Cn1c(N)nc2ccc(-c3[nH]c(C(C)(C)C)nc3-c3ccc(F)cc3)nc21 [ralimetinib]
In short: as §1

[11] = compound: CC(C)(O)CC(=O)NCCn1ccc2ncnc(Nc3ccc(Oc4cccc(C(F)(F)F)c4)c(Cl)c3)c21
In short: as §1

[12] = compound: CC(C)C1=C2N=C(C=C(N2N=C1)NCC3=CC=CC=C3)NCCCCCCN
In short: as §1

[13] = compound: CC(C)C[C@@H](C=O)NC(=O)[C@H](CC(C)C)NC(=O)[C@H](CC(C)C)NC(=O)OCc1ccccc1
In short: as §1

pinometostat = compound: CC(C)N(C[C@H]1O[C@@H](n2cnc3c(N)ncnc32)[C@H](O)[C@@H]1O)[C@H]1C[C@@H](CCc2nc3cc(C(C)(C)C)ccc3[nH]2)C1 [pinometostat]
In short: as §1

[14] = compound: CC1=C(C2=C(C=C1)C(=O)C3=CC=CC=C3N2CCCN)C
In short: as §1

[15] = compound: CC1=C(C(CC(=O)N1)C2=CC=C(C=C2)C(F)(F)F)C(=O)NC3=C(C=C4C(=C3)C=NN4)F
In short: as §1

Target | log2 fold change (erlotinib) | log2 fold change [1] | log2 fold change [2] | log2 fold change [3] | log2 fold change [4] | log2 fold change [5] | log2 fold change [6] | log2 fold change [7] | log2 fold change [8] | log2 fold change [9] | log2 fold change (IRAK-1-4 Inhibitor I) | log2 fold change (ibrutinib) | log2 fold change [10] | log2 fold change (ralimetinib) | log2 fold change [11] | log2 fold change [12] | log2 fold change [13] | log2 fold change (pinometostat) | log2 fold change [14] | log2 fold change [15]
PSMC1 (UniProt P62191) | inactive: -0.093 | inactive: -0.063 | inactive: -0.034 | inactive: 0.037 | inactive: -0.027 | inactive: -0.028 | inactive: -0.017 | inactive: 0.029 | inactive: 0.012 | inactive: -0.004 | inactive: -0.053 | inactive: -0.024 | inactive: 0.056 | inactive: 0.018 | inactive: 0.002 | inactive: 0.04 | active: -0.212 | inactive: 0.032 | inactive: -0.007 | –
PTK2B (UniProt Q14289) | inactive: 0.225 | inactive: 0.063 | – | inactive: 0.059 | inactive: 0.048 | inactive: 0.058 | inactive: 0.008 | inactive: -0.066 | inactive: 0.025 | inactive: 0.105 | inactive: -0.095 | inactive: -0.257 | inactive: -0.018 | inactive: 0.178 | inactive: -0.026 | inactive: -0.244 | inactive: 0.052 | inactive: 0.004 | inactive: 0.061 | –
PTPA (UniProt A6PVN8) | inactive: -0.061 | inactive: 0.21 | inactive: -0.107 | inactive: 0.367 | inactive: 0.088 | inactive: 0.031 | inactive: 0.063 | inactive: 0.065 | inactive: 0.01 | inactive: 0.031 | – | inactive: 0.063 | inactive: -0.241 | inactive: -0.07 | inactive: -0.052 | inactive: 0.122 | inactive: -0.002 | – | inactive: -0.104 | –
PTGES3 (UniProt Q15185) | inactive: 0.005 | inactive: 0.095 | inactive: 0.079 | inactive: -0.05 | inactive: 0.019 | inactive: 0.007 | inactive: 0.043 | inactive: -0.014 | inactive: -0.014 | inactive: -0.049 | inactive: 0.04 | inactive: 0 | inactive: -0.01 | inactive: 0.017 | inactive: -0.103 | inactive: -0.247 | inactive: -0.079 | inactive: -0.081 | inactive: -0.202 | –
PSMB4 (UniProt P28070) | inactive: -0.056 | inactive: -0.024 | inactive: -0.003 | inactive: 0.001 | inactive: -0.024 | inactive: -0.035 | inactive: -0.028 | inactive: 0.001 | inactive: 0.008 | inactive: 0.037 | inactive: -0.021 | inactive: 0.006 | inactive: 0.044 | inactive: -0.008 | inactive: 0.045 | inactive: 0.065 | inactive: -0.043 | inactive: 0.03 | inactive: 0.018 | –
PTP4A1 (UniProt Q93096) | inactive: 0.053 | inactive: 0.083 | inactive: 0.134 | inactive: 0.037 | inactive: -0.042 | inactive: 0.038 | inactive: 0.062 | inactive: 0.027 | inactive: -0.096 | inactive: -0.127 | inactive: -0.011 | inactive: -0.05 | inactive: 0.092 | inactive: -0.096 | inactive: 0.013 | inactive: -0.049 | inactive: -0.062 | inactive: -0.02 | inactive: -0.179 | –
PSMD11 (UniProt O00231) | inactive: -0.097 | inactive: -0.023 | inactive: -0.039 | inactive: 0.007 | inactive: -0.035 | inactive: -0.035 | inactive: 0.058 | inactive: 0.047 | inactive: -0.033 | inactive: -0.026 | inactive: -0.048 | inactive: 0 | inactive: 0.086 | inactive: 0.076 | inactive: 0 | inactive: -0.001 | active: -0.263 | inactive: 0.029 | inactive: 0.037 | –
PSMD5 (UniProt Q16401) | inactive: -0.015 | inactive: 0.038 | inactive: 0.063 | inactive: -0.007 | inactive: 0 | inactive: 0.027 | inactive: -0.001 | inactive: -0.012 | inactive: 0.014 | inactive: -0.004 | inactive: 0.04 | inactive: -0.004 | inactive: 0.047 | inactive: -0.013 | inactive: -0.033 | inactive: -0.106 | inactive: -0.061 | inactive: -0.003 | inactive: -0.042 | –
QKI (UniProt Q96PU8) | inactive: -0.011 | inactive: 0.051 | inactive: -0.008 | inactive: 0.003 | inactive: 0.028 | inactive: 0.007 | inactive: -0.002 | inactive: -0.032 | inactive: -0.025 | inactive: -0.007 | inactive: -0.034 | inactive: -0.004 | inactive: -0.113 | inactive: 0.007 | inactive: 0.019 | inactive: -0.221 | inactive: -0.005 | inactive: -0.026 | inactive: -0.043 | –
PSMB9 (UniProt P28065) | inactive: -0.158 | active: -0.633 | inactive: -0.116 | inactive: 0.113 | inactive: 0.174 | inactive: -0.142 | – | inactive: -0.006 | – | – | inactive: 0.091 | inactive: 0.511 | inactive: 0.031 | – | inactive: -0.01 | inactive: 0.205 | – | inactive: 0.069 | – | –
PTMA (UniProt P06454) | inactive: 0.06 | inactive: 0.159 | inactive: 0.192 | inactive: 0.005 | inactive: -0.136 | inactive: 0.006 | inactive: 0.197 | inactive: 0.189 | inactive: -0.148 | inactive: 0.151 | inactive: 0.034 | inactive: 0.049 | inactive: 0.127 | inactive: 0.251 | inactive: -0.133 | inactive: 0.085 | inactive: -0.289 | inactive: -0.092 | inactive: -0.021 | –
PTPRS (UniProt Q13332) | inactive: -0.026 | inactive: 0.055 | inactive: -0.051 | inactive: -0.004 | inactive: -0.107 | inactive: -0.15 | inactive: 0.173 | inactive: -0.021 | – | – | inactive: 0.157 | inactive: -0.026 | inactive: -0.031 | inactive: -0.193 | inactive: 0.055 | inactive: 0.031 | inactive: 0.521 | inactive: 0.254 | – | inactive: 0.032
PSMC3IP (UniProt Q9P2W1) | inactive: -0.203 | inactive: 0.168 | inactive: 0.005 | inactive: 0.011 | inactive: -0.098 | inactive: 0.225 | – | inactive: -0.191 | inactive: -0.106 | inactive: -0.139 | – | inactive: -0.081 | inactive: 0.053 | – | inactive: -0.149 | inactive: 0.051 | – | – | inactive: 0.102 | inactive: 0.051
PYGB (UniProt P11216) | inactive: -0.047 | inactive: -0.022 | inactive: -0.003 | inactive: 0.087 | inactive: 0.11 | inactive: 0.008 | inactive: -0.011 | inactive: 0.039 | inactive: 0.009 | inactive: -0.028 | inactive: -0.029 | inactive: 0.037 | active: -0.246 | inactive: -0.025 | inactive: 0.025 | inactive: 0.01 | inactive: 0.005 | inactive: 0.011 | inactive: 0.087 | –
PSMA3 (UniProt G3V4X5) | – | – | – | – | – | inactive: 0.051 | inactive: 0.348 | – | – | – | inactive: -0.451 | inactive: -0.065 | – | inactive: -0.114 | – | – | active: 0.733 | inactive: -0.001 | – | –
PSEN2 (UniProt P49810) | inactive: 0.002 | inactive: 0.219 | – | inactive: 0.119 | inactive: -0.053 | – | inactive: -0.108 | inactive: -0.024 | – | – | – | – | inactive: 0.065 | inactive: -0.113 | – | inactive: -0.147 | inactive: 0.047 | – | – | –
PSEN1 (UniProt P49768) | – | – | inactive: 0.023 | – | – | inactive: 0.119 | inactive: -0.021 | – | inactive: 0.051 | inactive: 0.003 | inactive: 0.014 | inactive: -0.076 | – | inactive: -0.039 | inactive: -0.079 | – | inactive: -0.012 | inactive: -0.005 | inactive: 0.109 | inactive: -0.033

Quoted from the listing.
For log2 fold change [2], QKI (UniProt Q96PU8) has the entry inactive: -0.008
For log2 fold change [6], PTGES3 (UniProt Q15185) has the entry inactive: 0.043
